Like-named read-outs stand apart in the source and are kept apart here. No constants are given. Whether binding was seen depends on the method and setting. Binding seen in cells or lysates may run through a third protein. Some binding calls cover weakened binding; strength is not graded here. Blank lines part the entries; values can stand above or below the molecule they belong to.
Key:
Experiment in all cases: co-IP
[1] = molecular target: T1, caveolin-1 (endogenous, mouse lung endothelial cells) (mouse (endogenous in MLEC)) (UniProt P49817)
T1 sequence: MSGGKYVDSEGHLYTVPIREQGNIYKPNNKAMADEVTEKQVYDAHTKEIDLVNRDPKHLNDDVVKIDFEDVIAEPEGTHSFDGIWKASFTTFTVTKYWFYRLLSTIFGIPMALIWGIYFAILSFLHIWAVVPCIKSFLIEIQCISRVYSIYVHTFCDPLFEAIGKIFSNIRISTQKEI

Protein sequences, listed by entry. Tags and fused reporters are not part of them. Lines headed by an entry give the natural chain unless they say otherwise; changes in a name come on top. Residues count along the entry.
UniProt P23458: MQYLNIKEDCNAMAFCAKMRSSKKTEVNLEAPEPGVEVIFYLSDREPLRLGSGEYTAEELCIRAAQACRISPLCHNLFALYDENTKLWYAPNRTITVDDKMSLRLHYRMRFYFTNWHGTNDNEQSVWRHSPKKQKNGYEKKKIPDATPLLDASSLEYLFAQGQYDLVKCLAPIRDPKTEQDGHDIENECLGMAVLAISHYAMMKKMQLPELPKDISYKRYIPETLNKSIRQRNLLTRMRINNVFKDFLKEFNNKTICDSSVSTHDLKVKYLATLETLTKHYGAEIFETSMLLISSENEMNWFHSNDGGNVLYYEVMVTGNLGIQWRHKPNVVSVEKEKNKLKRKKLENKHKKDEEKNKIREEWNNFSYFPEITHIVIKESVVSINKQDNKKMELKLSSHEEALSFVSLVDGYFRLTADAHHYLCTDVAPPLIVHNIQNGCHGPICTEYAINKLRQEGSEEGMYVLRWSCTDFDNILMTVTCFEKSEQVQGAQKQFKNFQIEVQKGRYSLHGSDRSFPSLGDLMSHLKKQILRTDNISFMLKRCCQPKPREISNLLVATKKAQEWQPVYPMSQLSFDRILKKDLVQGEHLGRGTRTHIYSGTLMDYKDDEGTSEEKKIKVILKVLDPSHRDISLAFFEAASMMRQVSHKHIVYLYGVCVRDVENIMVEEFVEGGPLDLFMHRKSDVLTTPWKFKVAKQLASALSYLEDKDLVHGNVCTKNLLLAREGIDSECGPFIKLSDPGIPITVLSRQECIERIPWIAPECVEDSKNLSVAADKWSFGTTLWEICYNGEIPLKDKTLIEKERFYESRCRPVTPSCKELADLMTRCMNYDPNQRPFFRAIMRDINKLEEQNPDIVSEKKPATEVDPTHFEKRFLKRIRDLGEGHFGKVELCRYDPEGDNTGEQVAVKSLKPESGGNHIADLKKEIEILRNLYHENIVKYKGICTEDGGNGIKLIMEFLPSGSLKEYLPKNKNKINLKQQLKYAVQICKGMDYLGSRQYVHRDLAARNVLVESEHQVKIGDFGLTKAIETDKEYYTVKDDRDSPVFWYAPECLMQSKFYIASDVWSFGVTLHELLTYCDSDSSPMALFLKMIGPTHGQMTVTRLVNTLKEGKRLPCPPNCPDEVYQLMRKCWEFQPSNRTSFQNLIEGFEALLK
UniProt Q9R117: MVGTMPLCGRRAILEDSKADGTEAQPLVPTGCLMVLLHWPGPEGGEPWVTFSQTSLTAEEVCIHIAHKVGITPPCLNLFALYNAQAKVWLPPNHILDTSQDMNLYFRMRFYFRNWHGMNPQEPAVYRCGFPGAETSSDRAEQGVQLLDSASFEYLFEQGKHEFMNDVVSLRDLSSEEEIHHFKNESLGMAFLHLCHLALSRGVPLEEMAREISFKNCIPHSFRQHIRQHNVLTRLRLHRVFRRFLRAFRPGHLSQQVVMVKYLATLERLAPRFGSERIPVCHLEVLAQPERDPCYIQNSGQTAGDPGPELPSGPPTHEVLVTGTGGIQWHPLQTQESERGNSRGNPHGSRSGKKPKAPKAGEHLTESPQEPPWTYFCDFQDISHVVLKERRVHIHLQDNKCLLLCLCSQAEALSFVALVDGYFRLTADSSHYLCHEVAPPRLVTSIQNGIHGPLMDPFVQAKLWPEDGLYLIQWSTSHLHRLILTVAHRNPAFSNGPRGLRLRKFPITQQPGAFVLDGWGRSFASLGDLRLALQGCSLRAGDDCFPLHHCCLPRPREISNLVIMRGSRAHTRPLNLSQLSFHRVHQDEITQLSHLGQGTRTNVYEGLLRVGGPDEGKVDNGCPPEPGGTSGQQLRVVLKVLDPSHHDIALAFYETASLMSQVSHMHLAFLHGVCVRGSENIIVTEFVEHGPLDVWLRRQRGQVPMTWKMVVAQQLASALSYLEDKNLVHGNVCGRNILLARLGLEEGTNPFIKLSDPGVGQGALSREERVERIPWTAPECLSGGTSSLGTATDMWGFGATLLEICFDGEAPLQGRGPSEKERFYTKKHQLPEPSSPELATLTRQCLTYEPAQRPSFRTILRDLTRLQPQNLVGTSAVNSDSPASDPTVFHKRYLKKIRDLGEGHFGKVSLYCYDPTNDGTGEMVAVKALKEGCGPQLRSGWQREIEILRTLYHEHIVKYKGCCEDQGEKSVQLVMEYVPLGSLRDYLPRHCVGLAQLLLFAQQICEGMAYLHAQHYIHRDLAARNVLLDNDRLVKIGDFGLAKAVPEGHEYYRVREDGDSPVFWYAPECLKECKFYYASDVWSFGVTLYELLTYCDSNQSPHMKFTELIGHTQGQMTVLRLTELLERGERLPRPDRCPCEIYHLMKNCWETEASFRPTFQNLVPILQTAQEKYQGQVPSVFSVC
UniProt P09055, residues 21-798: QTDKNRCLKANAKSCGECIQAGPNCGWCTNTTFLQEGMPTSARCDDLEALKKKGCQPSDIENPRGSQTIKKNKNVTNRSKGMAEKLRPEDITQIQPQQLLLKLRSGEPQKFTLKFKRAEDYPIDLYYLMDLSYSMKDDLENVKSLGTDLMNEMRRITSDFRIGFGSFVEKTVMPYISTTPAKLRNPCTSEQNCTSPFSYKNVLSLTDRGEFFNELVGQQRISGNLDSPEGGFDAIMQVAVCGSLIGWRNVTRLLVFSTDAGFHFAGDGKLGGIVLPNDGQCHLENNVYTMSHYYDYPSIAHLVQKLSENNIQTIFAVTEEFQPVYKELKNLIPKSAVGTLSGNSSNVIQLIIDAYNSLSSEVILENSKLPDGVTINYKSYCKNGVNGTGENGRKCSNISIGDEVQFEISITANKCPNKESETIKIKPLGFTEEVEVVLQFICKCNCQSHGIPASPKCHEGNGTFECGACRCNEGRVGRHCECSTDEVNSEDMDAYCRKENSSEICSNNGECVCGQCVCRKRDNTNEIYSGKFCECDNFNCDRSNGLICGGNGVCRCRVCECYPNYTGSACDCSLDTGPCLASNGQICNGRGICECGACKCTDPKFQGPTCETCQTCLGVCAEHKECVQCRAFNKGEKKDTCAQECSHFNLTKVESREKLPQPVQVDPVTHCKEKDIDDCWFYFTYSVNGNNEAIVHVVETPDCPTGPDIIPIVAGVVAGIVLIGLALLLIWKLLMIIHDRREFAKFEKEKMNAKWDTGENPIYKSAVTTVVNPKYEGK
UniProt P52332: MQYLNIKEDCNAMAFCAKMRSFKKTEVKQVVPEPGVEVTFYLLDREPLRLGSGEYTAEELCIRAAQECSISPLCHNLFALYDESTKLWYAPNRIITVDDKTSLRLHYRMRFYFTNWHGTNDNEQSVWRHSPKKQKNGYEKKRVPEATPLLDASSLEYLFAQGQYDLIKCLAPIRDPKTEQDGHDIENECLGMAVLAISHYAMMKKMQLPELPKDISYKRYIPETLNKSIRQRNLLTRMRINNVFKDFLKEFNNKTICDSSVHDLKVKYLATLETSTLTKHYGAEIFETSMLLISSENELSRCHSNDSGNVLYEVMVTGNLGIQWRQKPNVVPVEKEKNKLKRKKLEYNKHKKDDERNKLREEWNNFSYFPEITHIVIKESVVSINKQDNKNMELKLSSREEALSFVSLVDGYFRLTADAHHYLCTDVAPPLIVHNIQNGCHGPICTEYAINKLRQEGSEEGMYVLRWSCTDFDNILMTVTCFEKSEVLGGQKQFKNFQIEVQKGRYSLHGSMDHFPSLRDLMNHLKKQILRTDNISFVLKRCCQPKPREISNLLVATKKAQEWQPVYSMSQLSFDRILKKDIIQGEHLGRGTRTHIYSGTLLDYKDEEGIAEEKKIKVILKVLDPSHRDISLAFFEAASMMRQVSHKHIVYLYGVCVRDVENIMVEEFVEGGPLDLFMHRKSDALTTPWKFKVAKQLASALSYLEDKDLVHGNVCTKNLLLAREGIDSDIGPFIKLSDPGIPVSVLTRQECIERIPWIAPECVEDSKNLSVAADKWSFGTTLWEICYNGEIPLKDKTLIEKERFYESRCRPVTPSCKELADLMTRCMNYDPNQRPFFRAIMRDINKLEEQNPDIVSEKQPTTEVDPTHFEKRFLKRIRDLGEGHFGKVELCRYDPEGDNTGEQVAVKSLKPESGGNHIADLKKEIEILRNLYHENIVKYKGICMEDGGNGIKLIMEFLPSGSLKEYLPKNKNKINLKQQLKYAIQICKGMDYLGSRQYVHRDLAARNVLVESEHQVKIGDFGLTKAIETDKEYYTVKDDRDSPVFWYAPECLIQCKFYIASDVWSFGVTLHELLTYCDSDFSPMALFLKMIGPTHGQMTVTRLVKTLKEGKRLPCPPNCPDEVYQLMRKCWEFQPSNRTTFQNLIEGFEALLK
UniProt O08586: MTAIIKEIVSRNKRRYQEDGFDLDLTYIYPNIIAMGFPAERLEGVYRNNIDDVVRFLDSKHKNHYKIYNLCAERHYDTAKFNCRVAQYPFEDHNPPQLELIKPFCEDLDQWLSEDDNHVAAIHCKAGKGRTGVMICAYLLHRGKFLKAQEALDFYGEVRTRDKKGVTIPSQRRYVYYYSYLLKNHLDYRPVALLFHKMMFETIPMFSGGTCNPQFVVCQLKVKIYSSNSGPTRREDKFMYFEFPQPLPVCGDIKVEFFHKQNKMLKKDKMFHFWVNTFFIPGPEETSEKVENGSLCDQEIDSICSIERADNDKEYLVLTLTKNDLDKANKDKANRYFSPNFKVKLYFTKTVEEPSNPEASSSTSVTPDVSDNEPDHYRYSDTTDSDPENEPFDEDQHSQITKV

Cav1(F92A/V94A)-mRFP = Cav1(F92A/V94A)-mRFP (UniProt Q03135)
Cav1(W98A)-mRFP = Cav1(W98A)-mRFP (UniProt Q03135)
Cav1(WT)-mRFP = Cav1(WT)-mRFP (UniProt Q03135)
[2] = molecular target: T1, caveolin-1 (endogenous, mouse lung endothelial cells) (mouse (endogenous in MLEC)); remark: listed apart in the source

Molecule: ALFA-tagged JAK1 Δ1072-1154 (from UniProt P23458 1-1071) (domain or fragment)
- binding [1]: binds

Molecule: TYK2 (endogenous) (from UniProt Q9R117 1-1184) (enzyme)
- binding (Cav1(WT)-mRFP): no binding

Molecule: β1-integrin (endogenous) (from UniProt P09055 21-798) (receptor)
- binding [1]: no binding

B1: protein tyrosine phosphatase 1B (PTP1B), endogenous (enzyme, UniProt P35821 1-432)
chain: MEMEKEFEEIDKAGNWAAIYQDIRHEASDFPCKVAKLPKNKNRNRYRDVSPFDHSRIKLHQEDNDYINASLIKMEEAQRSYILTQGPLPNTCGHFWEMVWEQKSRGVVMLNRIMEKGSLKCAQYWPQQEEKEMVFDDTGLKLTLISEDVKSYYTVRQLELENLTTKETREILHFHYTTWPDFGVPESPASFLNFLFKVRESGSLSLEHGPIVVHCSAGIGRSGTFCLADTCLLLMDKRKDPSSVDIKKVLLEMRRFRMGLIQTADQLRFSYLAVIEGAKFIMGDSSVQDQWKELSREDLDLPPEHVPPPPRPPKRTLEPHNGKCKELFSSHQWVSEETCGDEDSLAREEGRAQSSAMHSVSSMSPDTEVRRRMVGGGLQSAQASVPTEEELSSTEEEHKAHWPSHWKPFLVNVCMATLLATGAYLCYRVCFH
- binding [2]: binds

Results, then the molecule that gave them:

- binding [1]: no binding
Molecule: ALFA-tagged JAK1 Δ1057-1154 (from UniProt P23458 1-1056) (domain or fragment)

- binding (Cav1(F92A/V94A)-mRFP): no binding
- binding (Cav1(W98A)-mRFP): no binding
- binding (Cav1(WT)-mRFP): binds
- binding [1]: binds
Molecule: JAK1 (endogenous, mouse lung endothelial cells) (from UniProt P52332 1-1153) (enzyme)

- binding [1]: binds
Molecule: phosphatase and tensin homolog (PTEN), endogenous (from UniProt O08586 1-403) (enzyme)

- binding [2]: binds
B2: endothelial nitric oxide synthase (eNOS), endogenous (enzyme, UniProt P70313 1-1202)
chain: MGNLKSVGQEPGPPCGLGLGLGLGLCGKQGPASPAPEPSQAPAPPSPTRPAPDHSPPLTRPPDGPRFPRVKNWEVGSITYDTLSAQAQQDGPCTSRRCLGSLVFPRKLQSRPTQGPSPTEQLLGQARDFINQYYNSIKRSGSQAHEQRLQEVEAEVAATGTYQLRESELVFGAKQAWRNAPRCVGRIQWGKLQVFDARDCRTAQEMFTYICNHIKYATNRGNLRSAITVFPQRCPGRGDFRIWNSQLIRYAGYRQQDGSVRGDPANVEITELCIQHGWTPGNGRFDVLPLLLQAPDEPPELFTLPPEMVLEVPLEHPTLEWFAALGLRWYALPAVSNMLLEIGGLEFPAAPFSGWYMSSEIGMRDLCDPHRYNILEDVAVCMDLDTRTTSSLWKDKAAVEINVAVLHSYQLAKVTIVDHHAATASFMKHLENEQKARGGCPADWAWIVPPISGSLTPVFHQEMVNYFLSPAFRYQPDPWKGSAAKGAGITRKKTFKEVANAVKISASLMGTVMAKRVKATILYGSETGRAQSYAQQLGRLFRKAFDPRVLCMDEYDVVSLEHEALVLVVTSTFGNGDPPENGESFAAALMEMSGPYNSSPRPEQHKSYKIRFNSVSCSDPLVSSWRRKRKESSNTDSAGALGTLRFCVFGLGSRAYPHFCAFARAVDTRLEELGGERLLQLGQGDELCGQEEAFRGWAQAAFQAACETFCVGEDAKAAARDIFSPKRSWKRQRYRLSTQAESLQLLPGLTHVHRRKMFQATILSVENLQSSKSTRATILVRLDTGGQEGLQYQPGDHIGVCPPNRPGLVEALLSRVEDPPPSTEPVAVEQLEKGSPGGPPPGWVRDPRLPPCTLRQALTYFLDITSPPSPRLLRLLSTLAEESSEQQELEALSQDPRRYEEWKWFSCPTLLEVLEQFPSVALPAPLILTQLPLLQPRYYSVSSAPSAHPGEIHLTIAVLAYRTQDGLGPLHYGVCSTWMSQLKAGDPVPCFIRGAPSFRLPPDPNLPCILVGPGTGIAPFRGFWQDRLHDIEIKGLQPAPMTLVFGCRCSQLDHLYRDEVLDAQQRGVFGQVLTAFSRDPGSPKTYVQDLLRTELAAEVHRVLCLEQGHMFVCGDVTMATSVLQTVQRILATEGGMELDEAGDVIGVLRDQQRYHEDIFGLTLRTQEVTSRIRTQSFSLQERQLRGAVPWSFDPPGPEIPGS

From article doi:10.1101/2025.07.27.666936
